In paper doi:10.1101/2024.05.31.596839:
Where two headings read alike, the source gives them in different places. These are yes or no findings as the source states them, for the method shown. For some assays here: A result given as binding can be weak or reduced; the word gives no strength. For some assays here: Sequences can lack the tags named with a protein.

Legend:
[1] = target: Tejas (Drosophila); experiment: ReLo
[2] = target: Tapas (Drosophila); experiment: ReLo
[3] = target: Tejas (Drosophila); experiment: ReLo; remark: listed apart in the source
[4] = target: Tejas eTudor domain (aa 334-559) (Drosophila); experiment: ReLo
[5] = target: GST-superfolder-GFP (GsfG)-Tejas (Drosophila); experiment: pull-down
[6] = target: GST-Tejas (Drosophila); experiment: pull-down
[7] = target: BoYb NTD (Drosophila); experiment: ReLo
[8] = target: SoYb NTD (Drosophila); experiment: ReLo
[9] = target: BoYb CS domain (Drosophila); experiment: ReLo
[10] = target: Qin (Drosophila); experiment: ReLo

B1: Maelstrom (protein, UniProt Q9VNS0 1-459)
chain: MAPKKHSGFMMFVNEWRNRNAEGRRMTLAQAVSHCGTIWEKMNTQQRGPYNSGGKDANVAQRAKRESSNGHGQVDKAQREATESLMDMKRTIERLVLNAKMSHDLENAKFVFVAFNYFTKALTTDVYVPAEFAACEYSLKEGIRSIYSTMIDPGQIIFGQGSDALLHSSTTHDLPLPPNALGEKNMTKLYRNIVDYLSKCQGKGKTLVVFTPAENITMVKSCFRYLECDDDFRDGGEKIQVFDIQYLLFILKKEVMNVADLNDEKINKFATDAFFKKDFFEFTAGIACQYHEDNDRTKYCTQSMVTRWAYTFTDFMCGDLAITVQPGKHIPAQTKPNYLIISSYASSLDHESSFDSFYSLPGSGVKKESQPEACSLSSSRLSVASSSYKPIDHTSFAANLNEVSEFPSLGMRNSSKHHGIAASAQREWNARNLPTHSRLIRKVSDNDFSVNGADGKLKK
- binding [1]: binds
- binding [2]: no binding

B2: Krimper (protein, UniProt A1ZAC4 1-746)
chain: MNLEDISMIMKLFDSNMHKLQGNLRSYQTEMHQIHKELTEKLSHADLLYRSLIPLHDHLVASLSEVNAHVMKLNVQLHINRQSVRLGDYEYYEKSIDNPYSSIRSGLQAIEKPGCAEAICQSSKPAFVECLPSSTSEEVPVVAVQEASSTNQLDAISVVNENLSEERDATPQPLAVSKNMEETMPSNPFHEQLEGSLEEIPVGSKIVVETEKANNPVRSEASAPATSDNQSLLAAKQGTQTIGTGICNKISKSTINMPNNWQLENPTEVTAASIEKVNKLPKSPRNRFLLPPKGGTETTRRDIYNQILKDMAAFPENTIVTAVLASVDVTDNCAYVAKWDESSDRIKKVLQRQLPLQELDQLPDYGDIFAVLDSINNIITRITINSSSAGGGYDAYLIDFGEHIHFDGNETIFKLPDDIKRLPAQAIRCDLINCDIANMHCFVNTYIKIRVHENNNSTLVAEPVIDRLSRPTKTNTTKYPAGITEDDMAMLNEIDESTSDPLKAVLGFRPKDEQRICRHYDPKLNGCFKGNNCRFAHEPFAPNGATKDVELARALPETIFDTTVHFEIGSIVGILITFINGPTEVYGQFLDGSPPLVWDKKDVPENKRTFKSKPRLLDIVLALYSDGCFYRAQIIDEFPSEYMIFYVDYGNTEFVPLSCLAPCENVDSFKPHRVFSFHIEGIVRSKNLTHQKTIECIEYLKSKLLNTEMNVHLVQRLPDGFLIRFLDDWKYIPEQLLQRNYAQVSQ
- binding [3]: binds
- binding [1]: binds
- binding [4]: binds
- binding [2]: no binding

B3: Maelstrom C-terminal region (aa 334-459) (domain or fragment, UniProt Q9VNS0 334-459)
chain: TKPNYLIISSYASSLDHESSFDSFYSLPGSGVKKESQPEACSLSSSRLSVASSSYKPIDHTSFAANLNEVSEFPSLGMRNSSKHHGIAASAQREWNARNLPTHSRLIRKVSDNDFSVNGADGKLKK
- binding [4]: binds

B4: full-length MBP-Maelstrom (protein, UniProt Q9VNS0 1-459)
chain: B1 chain
- binding [5]: binds

Binder: NSSKHHGIAASAQREWNARNLPTHSRLIRKVSDNDFSVNGADGKLKK (domain or fragment, UniProt Q9VNS0 413-459) [MBP-fused Mael C-terminus (aa 413-459)]
- binding [6]: binds

B5: Vret-N (domain or fragment, UniProt Q9VCU7 1-178)
chain: MESESSQDDWSAFDPMSREYYDQVGNRYTNESGQKLIMEAPLPPKDEKEQRATRQAKYPYLVVPKSSPYVTEKMLINFFGRALIKEMEFRRLSRVYFVYFENIASLETAQQRVQRYPNLIKCITGRPQKEREITSDPVTSTEPMPTPGPAISATERTPVNHNREVPISTGGQNHPEFF
- binding [7]: binds
- binding [8]: binds

B6: Vret-C (domain or fragment, UniProt Q9VCU7 178-691)
chain: FRPPLVTKDDYKRGSLLATNDPIQRYLNVKYEFALERHDIYKLKDETRIPQVVLHFRSGRTIPLSTVAVTEEDKTKSLLEDGVSKCVVCQNWTDTFCKLCKMPFCNASCFADVAEQHKQACGKGEILNLDEKVGRKYPKPGLPPSGSKVRITAFEQTNVVYVRSADIQIDIAYYTVLTEVMMLGKDASKLQSTPVCGQIVLYKFEGHMSRAMVLNVDNIKEIYVVFIDFGSVEVTQLERLYECSSYLAGLTCYPVAVKLRGVPRRFVGPNIREVMYELDQSLVFNIKYSSREYDTSKGMQVVVMTEIDINRSLNRLFKTILTPVEPSVSDLGYKEDCLPYIPLHCGKNINVVVMDNTFIQCGFIYCTSIDLAYEVTKMQRDIQEYGEKIAKCATYAPPINELCIAKYEGKWRRGLSVELVGDGYPSILFIDYGNIVPTHVTDIRPYPPQFIFPIMTTQLDLIGVPEKPTDEQIKWLDKNYPIGSVITCSEITFDEETNSYSTRIEKLQEFLSLD
- binding [9]: binds

B7: Piwi (protein, UniProt Q9VKM1 1-843)
chain: MADDQGRGRRRPLNEDDSSTSRGSGDGPRVKVFRGSSSGDPRADPRIEASRERRALEEAPRREGGPTERKPWGDQYDYLNTRPAELVSKKGTDGVPVMLQTNFFRLKTKPEWRIVHYHVEFEPSIENPRVRMGVLSNHANLLGSGYLFDGLQLFTTRKFEQEITVLSGKSKLDIEYKISIKFVGFISCAEPRFLQVLNLILRRSMKGLNLELVGRNLFDPRAKIEIREFKMELWPGYETSIRQHEKDILLGTEITHKVMRTETIYDIMRRCSHNPARHQDEVRVNVLDLIVLTDYNNRTYRINDVDFGQTPKSTFSCKGRDISFVEYYLTKYNIRIRDHNQPLLISKNRDKALKTNASELVVLIPELCRVTGLNAEMRSNFQLMRAMSSYTRMNPKQRTDRLRAFNHRLQNTPESVKVLRDWNMELDKNVTEVQGRIIGQQNIVFHNGKVPAGENADWQRHFRDQRMLTTPSDGLDRWAVIAPQRNSHELRTLLDSLYRAASGMGLRIRSPQEFIIYDDRTGTYVRAMDDCVRSDPKLILCLVPNDNAERYSSIKKRGYVDRAVPTQVVTLKTTKNRSLMSIATKIAIQLNCKLGYTPWMIELPLSGLMTIGFDIAKSTRDRKRAYGALIASMDLQQNSTYFSTVTECSAFDVLANTLWPMIAKALRQYQHEHRKLPSRIVFYRDGVSSGSLKQLFEFEVKDIIEKLKTEYARVQLSPPQLAYIVVTRSMNTRFFLNGQNPPPGTIVDDVITLPERYDFYLVSQQVRQGTVSPTSYNVLYSSMGLSPEKMQKLTYKMCHLYYNWSGTTRVPAVCQYAKKLATLVGTNLHSIPQNALEKKFYYL
- binding [10]: no binding

B8: Argonaute 3 (protein, UniProt Q7PLK0 1-867)
chain: MSGRGNLLSLFNKNAGNMGKSISSKDHEIDSGLDFNNSESSGERLLSSHNIETDLITTLQHVNISVGRGRARLIDTLKTDDHTSNQFITSESKENITKKTKGPESEAIASENGLFFPDLIYGSKGSSVNIYCNYLKLTTDESKGVFNYEVRFFPPIDSVHLRIKYLNDHKDKLGGTKTFDGNTLYLPILLPNKMTVFISKAEDVELQIRILYKKKEEMRNCTQLYNILFDRVMKVLNYVKFDRKQFDPSRPKIIPLAKLEVWPGYVTAVDEYKGGLMLCCDVSHRILCQKTVLEMLVDLYQQNVEHYQESARKMLVGNIVLTRYNNRTYKINDICFDQNPTCQFEIKTGCTSYVEYYKQYHNINIKDVNQPLIYSIKKSRGIPAERENLQFCLIPELCYLTGLRDEVRSDNKLMREIATFTRVSPNQRQMALNKFYENVSNTPAAQEILNSWGLSLTNNSNKISGRQMDIEQIYFSKISVSAGRSAEFSKHAVTNEMLKVVHLSKWIIIHLRNYRQAATSLLDNMKQACESLGMNISNPTMISLDHDRIDAYIQALRRNITMNTQMVVCICHNRRDDRYAAIKKICCSEIPIPSQVINAKTLQNDLKIRSVVQKIVLQMNCKLGGSLWTVKIPFKNVMICGIDSYHDPSNRGNSVAAFVASINSSYSQWYSKAVVQTKREEIVNGLSASFEIALKMYRKRNGKLPTNIIIYRDGIGDGQLYTCLNYEIPQFEMVCGNRIKISYIVVQKRINTRIFSGSGIHLENPLPGTVVDQHITKSNMYDFFLVSQLVRQGTVTPTHYVVLRDDCNYGPDIIQKLSYKLCFLYYNWAGTVRIPACCMYAHKLAYLIGQSIQRDVAEALSEKLFYL
- binding [2]: no binding
